Measured values: patent US4629723A (Ortho Pharmaceutical Corporation, priority 1984, dated 1986)

Experiment: general procedure: Boc solid-phase peptide synthesis; Boc-Phe Merrifield (chloromethylated) resin; p-methylbenzhydrylamine (MBHA) resin; DCC; DCC/HOBt
Details: whole synthesis, TLC; HPLC

Arginyl-Lysyl-Aspartyl-Valyl-Tryptophan
final purity (method not given): 93% pure
